Experimental findings from PubChem BioAssay AID328 (DTP/NCI, 2004) are described below.

The list is a part of this screen's results and no random one: it is rich in T/C values a quarter to a half above the control, in often repeated tests (any T/C) and in doses without a T/C. Other doses and runs of a compound stand elsewhere. T/C: endpoint of the treated group in % of that of the vehicle group. Some entries give survivors of the animals treated and no T/C: the source files T/C as zero there, which appears to mark a toxic dose or a test without result, not a measured value. Some doses without a T/C left all or most animals alive at the check, yet need not have been tolerated: the source hardly ever lists a survival T/C far under the control, and the zero likely stands for such cases as well. Survivors were counted at the toxicity check, usually on the fifth day, unless a day is given; later deaths do not show. Schedules are NCI's codes, taken here to give the interval after Q, in days (D) or hours (H), and the number of doses after X. Some entries were tested several times; their values stand side by side, smallest first. Some molecules as drawn cover several salts, stereoisomers or complexes of the source; a dose is that of the sample tested. Where survival is the endpoint, this PubChem deposit counts one and a half times the control or more as active, and values a quarter to a half above the control carry no call in these data; other NCI protocols may use other cut-offs. Some T/C values are followed by the survivors on the day toxicity was checked, most often the fifth; without a count, all were alive then.

This assay relates to BDF1 mice, P388 leukemia ip, median survival T/C. The experiment in a line: NCI In Vivo Anticancer Drug Screen. Data for tumor model P388 Leukemia (intraperitoneal) in B6D2F1 (BDF1) mice. The settings on record: T/C endpoint: median survival time, higher T/C = longer survival. The method, boiled down:
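Read-out is survival of treated animals expressed relative to the vehicle group, as a T/C ratio.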

Setting [1] is: dose: 37.5 mg/kg/injection, schedule: Q04DX003 (ip), vehicle: saline.
Where [2] appears, read: dose: 150.0 mg/kg/injection, schedule: Q04DX003 (ip), vehicle: saline.
Setting [3] is: dose: 25.0 mg/kg/injection, schedule: Q01DX009 (ip), vehicle: water.
[4] abbreviates: dose: 50.0 mg/kg/injection, schedule: Q01DX009 (ip), vehicle: water.
[5] abbreviates: dose: 100.0 mg/kg/injection, schedule: Q01DX009 (ip), vehicle: water.
[6] abbreviates: dose: 200.0 mg/kg/injection, schedule: Q01DX009 (ip), vehicle: water.
Where [7] appears, read: dose: 100.0 mg/kg/injection, schedule: Q01DX009 (ip), vehicle: saline with Tween-80.
Setting [8] is: dose: 200.0 mg/kg/injection, schedule: Q01DX009 (ip), vehicle: saline with Tween-80.

Turning to `CNCCOC(=O)/C=C1\CC[C@H]2[C@@H]([C@@H](O)C(=O)[C@@H]3[C@]2(C)CC[C@H](O)[C@]3(C)C(=O)OC)[C@H]1C`, the survivor count by setting is: (dose: 100.0 mg/kg/injection, schedule: Q01DX009 (ip), vehicle: saline) 0 of 3; (dose: 200.0 mg/kg/injection, schedule: Q01DX009 (ip), vehicle: saline) 0 of 3; (dose: 400.0 mg/kg/injection, schedule: Q01DX009 (ip), vehicle: saline) 0 of 3.
With `Oc1ccccc1OB(Oc1ccccc1O)N(CCCl)CCCl`, the T/C is, setting by setting: (dose: 12.0 mg/kg/injection, schedule: Q01DX009 (ip), vehicle: Klucel (hydroxypropylcellulose) (HPC)) 131 % of control; under setting [1], 145 % of control. In addition, the survivor count is 6 of 6 (dose: 56.25 mg/kg/injection, schedule: Q01DX009 (ip), vehicle: Klucel (hydroxypropylcellulose) (HPC)); 6 of 6 (dose: 112.5 mg/kg/injection, schedule: Q01DX009 (ip), vehicle: Klucel (hydroxypropylcellulose) (HPC)); 5 of 6 under setting [2].
On to `CCC(C)P(=O)(N1CC1)N1CC1` (centres undefined), for which the survivor count is on record as 2 of 6 under setting [1]; 0 of 6 (dose: 100.0 mg/kg/injection, schedule: Q04DX003 (ip), vehicle: saline); 0 of 6 (dose: 200.0 mg/kg/injection, schedule: Q04DX003 (ip), vehicle: saline); 0 of 6 (dose: 400.0 mg/kg/injection, schedule: Q04DX003 (ip), vehicle: saline).
With `O=N[O-].O=N[O-].[Co].[NH-]CC[N-]CCO.[NH-]CC[N-]CCO`, the T/C under setting [3] was 94 [5 of 6 alive], 97, 118, 129 % of control. The survivor count was 5 of 6 under setting [4]; 1 of 6 and 3 of 6 under setting [5]; 1 of 6 under setting [6].
On to `CC(C)(C)OOC(=O)c1ccccc1O`, for which the T/C under setting [7] is 136 % of control. For the same molecule, the survivor count under setting [8] is reported as 0 of 6.
Take `N#CSc1ncnc2nc[nH]c12`: the T/C (dose: 6.0 mg/kg/injection, schedule: Q01DX009 (ip), vehicle: alkali diluted with saline) was 125 % of control. For the same molecule, the survivor count is reported as 2 of 6 (dose: 25.0 mg/kg/injection, schedule: Q04DX003 (ip), vehicle: alkali diluted with saline) and 0 of 6 (dose: 50.0 mg/kg/injection, schedule: Q04DX003 (ip), vehicle: alkali diluted with saline).
Turning to `CCCCC(CC)C(=O)[O][Sn]([CH2]CCC)([CH2]CCC)[O]C(=O)C(CC)CCCC` (centres undefined), the T/C (dose: 25.0 mg/kg/injection, schedule: Q04DX003 (ip), vehicle: acetone) was 125 % of control.
`CCN(CC)CCCC(C)NC(=O)c1ccc(N(C)C)nc1` (centres undefined): the survivor count under setting [3] is listed as 6 of 6; the survivor count under setting [5] is listed as 6 of 6; the survivor count under setting [6] is given as 6 of 6; the survivor count (dose: 400.0 mg/kg/injection, schedule: Q01DX009 (ip), vehicle: water) was 3 of 6.
For `CCOC(=O)Nc1cc2c(c(N)n1)N=C(CN(C)c1ccc(OC)cc1)CN2`, the survivor count is listed as 1 of 6 (dose: 100.0 mg/kg/injection, schedule: Q01DX001 (ip), vehicle: Klucel (hydroxypropylcellulose) (HPC)) and 0 of 5 (dose: 200.0 mg/kg/injection, schedule: Q01DX001 (ip), vehicle: Klucel (hydroxypropylcellulose) (HPC)).
Take `COC(=O)C1CN(c2ccccc2)N=C1C(C)=O` (centres undefined): the survivor count (dose: 400.0 mg/kg/injection, schedule: Q04DX003 (ip), vehicle: saline with Tween-80) was 6 of 6.
`COc1cc(NC(=O)CN(CCCl)CCCl)cc(OC)c1OC`: the T/C reads like this: (dose: 15.0 mg/kg/injection, schedule: Q04DX003 (ip), vehicle: Klucel (hydroxypropylcellulose) (HPC)) 135 % of control; (dose: 30.0 mg/kg/injection, schedule: Q04DX003 (ip), vehicle: Klucel (hydroxypropylcellulose) (HPC)) 125 % of control; (dose: 132.0 mg/kg/injection, schedule: Q04DX003 (ip), vehicle: Klucel (hydroxypropylcellulose) (HPC)) 140 % of control.
`COc1cccc2c1C(=O)c1c(O)c3c(c(O)c1C2=O)C[C@@](O)(C(=O)CO)C[C@@H]3OC1CC([N+](C)(C)C)C(O)C(C)O1` (some centres undefined): the T/C runs as follows: (dose: 8.64 mg/kg/injection, schedule: Q04DX003 (ip), vehicle: water) 129 % of control; (dose: 14.4 mg/kg/injection, schedule: Q04DX003 (ip), vehicle: water) 136 % of control. The survivor count is recorded as 5 of 8 (dose: 24.0 mg/kg/injection, schedule: Q04DX003 (ip), vehicle: water) and 3 of 8 (dose: 40.0 mg/kg/injection, schedule: Q04DX003 (ip), vehicle: water).
Take `C[N+](C)(CC(=O)Nc1ccc(Cl)c(Cl)c1)CC(=O)c1ccc(Cl)c(Cl)c1`: the survivor count runs as follows: (dose: 100.0 mg/kg/injection, schedule: Q04DX003 (ip), vehicle: saline sonified) 6 of 6; (dose: 200.0 mg/kg/injection, schedule: Q04DX003 (ip), vehicle: saline sonified) 6 of 6.
Take `c1ccc2c(c1)CC1CCCCN1C2` (centres undefined): the survivor count is, setting by setting: (dose: 75.0 mg/kg/injection, schedule: Q01DX009 (ip), vehicle: Klucel (hydroxypropylcellulose) (HPC)) 5 of 6; (dose: 75.0 mg/kg/injection, schedule: Q01DX009 (ip), vehicle: saline) 4 of 6; (dose: 115.0 mg/kg/injection, schedule: Q01DX009 (ip), vehicle: Klucel (hydroxypropylcellulose) (HPC)) 0 of 6; (dose: 115.0 mg/kg/injection, schedule: Q01DX009 (ip), vehicle: saline) 0 of 6; under setting [2], 0 of 6; (dose: 170.0 mg/kg/injection, schedule: Q01DX009 (ip), vehicle: Klucel (hydroxypropylcellulose) (HPC)) 0 of 6. The survivor count (dose: 170.0 mg/kg/injection, schedule: Q01DX009 (ip), vehicle: saline) is 0 of 6.
For `COc1ccc(-c2c(C#N)cnc(C)c2C)c(O)c1OC`, the survivor count is, setting by setting: (dose: 0.05 mg/kg/injection, schedule: Q01DX009 (ip), vehicle: Klucel (hydroxypropylcellulose) (HPC)) 5 of 6; (dose: 0.1 mg/kg/injection, schedule: Q01DX009 (ip), vehicle: Klucel (hydroxypropylcellulose) (HPC)) 6 of 6; (dose: 0.4 mg/kg/injection, schedule: Q01DX009 (ip), vehicle: Klucel (hydroxypropylcellulose) (HPC)) 6 of 6.
As to `CC(C1CCC/C(=N\NC(N)=O)C1)[N+](=O)[O-]` (centres undefined), the T/C (dose: 0.78 mg/kg/injection, schedule: Q01DX009 (ip), vehicle: saline with Tween-80) is 134 % of control. Besides, the survivor count was 6 of 6 (dose: 12.5 mg/kg/injection, schedule: Q01DX009 (ip), vehicle: saline with Tween-80); 6 of 6 (dose: 25.0 mg/kg/injection, schedule: Q01DX009 (ip), vehicle: saline with Tween-80); 5 of 6 and 6 of 6 (dose: 50.0 mg/kg/injection, schedule: Q01DX009 (ip), vehicle: saline with Tween-80); 5 of 6 under setting [7]; 1 of 6 under setting [8].
Regarding `Clc1ccc(-c2cc(=[N+]3CC[N+](=c4cc(-c5ccc(Cl)cc5)ss4)CC3)ss2)cc1`, the T/C by setting is: under setting [3], 125 % of control; under setting [4], 126 % of control. Besides, the survivor count was 3 of 6 (dose: 300.0 mg/kg/injection, schedule: Q01DX009 (ip), vehicle: water) and 1 of 6 (dose: 400.0 mg/kg/injection, schedule: Q04DX003 (ip), vehicle: water).
For the molecule `CC(=O)N1C2=CCCC3CCCCC23c2ccccc21` (centres undefined), under setting [8], the T/C was 130 % of control.
Take `CSCC(C(N)=O)c1cc(Cl)ccc1Cl` (centres undefined): the survivor count under setting [8] was 3 of 6 and the survivor count (dose: 400.0 mg/kg/injection, schedule: Q01DX009 (ip), vehicle: saline with Tween-80) is 4 of 6.
For the molecule `CCc1c(Cl)c(C)cc(O)c1Cl`, the T/C was 133 % of control (dose: 25.0 mg/kg/injection, schedule: Q01DX009 (ip), vehicle: gum acacia) and 129 % of control (dose: 37.0 mg/kg/injection, schedule: Q01DX009 (ip), vehicle: gum acacia). Besides, the survivor count (dose: 100.0 mg/kg/injection, schedule: Q01DX009 (ip), vehicle: gum acacia) is given as 5 of 6.
